# According to PubChem BioAssay AID493014 (National Center for Advancing Translational Sciences (NCATS), 2011):
# Among all 340,000 compounds or so, about 170 (0.05%) were called active. The shares of active, inactive and inconclusive entries below differ from those in the screen. Calls come from the whole dose curve; as a rule, active = well fitted inhibition curve with a large enough effect in the signal ratio, with a control signal flat (not every such curve was filed as active); inconclusive = small, poorly fitted or top-dose-only effect, or effect the other way, or a change in a side signal; inactive = flat fitted curve, though single readings scatter; the % refers to the signal ratio. Potencies of inconclusive entries are doubtful fits and often do not repeat.
# Test: qHTS Assay to Find Inhibitors of Chronic Active B-Cell Receptor Signaling;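 for activity change, negative = inhibition: plate controls were basal doxycycline-induced cells for no effect and cells given 10 µM MG132 for full effect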
# Conditions: ABC-DLBCL IkBa-CBG/CBR reporter, luminescence ratio (green luciferase fused to IkBa over red control in TMD8 lymphoma cells), 4 h; activity change, negative = inhibition: at 46.1 µM (top of the series)
# Procedure, shortened: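 Compounds up to 46 uM were incubated four hours with TMD8 cells whose green CBG68 luciferase is fused to IkappaBalpha; red CBR luminescence normalised the signal, and concentration-effect curves were fitted to fusion, red and ratio data.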
# Potency is the fitted concentration of half-maximal effect.
Compound,"activity change, negative = inhibition",Potency
O=C(CCN1CCOCC1)Nc1ccc(Br)cc1C(=O)c1ccccc1,inconclusive: 0.174%,–
CCOC(=O)c1ccc2[nH]c(-c3ccc(S(=O)(=O)F)cc3)cc(=O)c2c1,inconclusive: -15.8%,–
CCN1CCN(C(=O)COc2ccc(S(=O)(=O)N3CCOCC3)cc2Cl)CC1,inactive,–
CCOP(=O)(OCC)C1(C(=O)O)CCCC1,inconclusive: -8.17%,–
CCN(CC)CCN=Cc1c(O)n(Cc2ccccc2)c(=O)[nH]c1=O,inconclusive: 12.7%,–
CN(C(=O)Oc1ccc(C(C)(C)C)cc1)c1ccccc1,inconclusive: 8.93%,–
C=CCn1c(O)c(C=Nc2ccccc2)sc1=S,inconclusive: -27.4%,–
O=C(c1cc(-c2ccccc2)on1)N1CCC2(CC1)OCCO2,inconclusive: 0.212%,–
O=C(CNC1CCCCC1)N1CCC2(CC1)OCCO2,inconclusive: -0.918%,–
N[C@@H](Cc1c[nH]c2ccccc12)c1nnc(SCc2c(F)cccc2Cl)o1,inconclusive: 10.4%,–
CSc1ccc(CN2CCN(c3ccccc3C)CC2)cc1,inactive,–
COC(=O)C1=C(c2ccccc2OCc2ccccc2)C[C@@H]2CC[C@H]1N2C(=O)NCCOc1ccc(OC)cc1,inactive,–
CCN(CC)CCNCc1nc2ccccc2c(=O)n1-c1ccc(F)cc1,–,"inconclusive: 32.6 µM [falling, partial curve, poor fit]"
Cc1ccc2c(c1)CC1(CN2C)C(=O)NC(=O)N(CCc2ccccc2)C1=O (stereo not given),–,"inconclusive: 9.2 µM [falling, partial curve]"
COc1ccc(Nc2nc(-c3ccccc3O)nc3ccccc23)cc1,inconclusive: 1.09%,–
Cc1ccccc1-n1c(C)nc2sccc2c1=O,inconclusive: -25.3%,–
c1ccc(CCNCc2ccccc2)cc1,inactive,–
COc1cccc(CNc2ncnc3cc(Cl)ccc23)c1,inconclusive: -18.8%,–
O=c1c2ccccc2[se]n1-c1ccccc1,–,"inconclusive: 18.4 µM [cytotoxic, partial curve]"
CCOc1cc(/C=N/NC(=O)c2ccc(N(C)S(=O)(=O)c3ccccc3)cc2)ccc1OC,inconclusive: -11.1%,–
Cc1cccc([N+](=O)[O-])c1,inactive,–
C[n+]1c(-c2ccccc2)c2cc(N)ccc2c2ccc(N)cc21,inconclusive: 26.9%,–
C#CC1(O)C=CC2C3CCC4=CC(=O)CCC4C3CCC21CC (stereo not given),inconclusive: -10.1%,–
CC(C)(C)C(O)C(Oc1ccc(Cl)cc1)n1cncn1 (stereo not given),inconclusive: 3.75%,–
CCc1cc2c(N3CCN(c4nnc(CC)s4)CC3)ncnc2s1,inconclusive: -21.3%,–
Cc1cc2cc(CN(Cc3ccc4c(c3)OCO4)C(=O)c3ccco3)c(=O)[nH]c2cc1C,inconclusive: -1.5%,–
O=C1Nc2ccccc2/C1=C/c1nc2ccccc2c(=O)n1-c1ccc(O)cc1,–,"inconclusive: 15.8 µM [falling, single point]"
COc1cc2c(cc1OC)C(C(=O)N1CCC3(CC1)OCCO3)C(c1ccccc1F)N(C)C2=O (stereo not given),inconclusive: -28.8%,–

Compound,"activity change, negative = inhibition",Potency
CCCOc1ccc(Cn2c(=O)oc3ccc(C)cc32)cc1,inconclusive: 1.83%,–
Cc1cccc(CN2C(=O)CN=C(c3ccccc3)c3cc(Cl)ccc32)c1,inactive,–
C1=C(c2c[nH]c3ccccc23)CCN(Cc2ccccc2)C1,inactive,–
O=C(CN1CCN(C(=O)COc2cccc(F)c2)CC1)Nc1ccc(Cl)c(C(F)(F)F)c1,inconclusive: -10.1%,–
COc1cc(C(=O)Nc2ccc(N(C)C)cc2)cc(OC)c1OC,inconclusive: -0.0866%,–
COc1ccccc1Nc1nnc(SCC(=O)N2CCCC2)s1,–,"inconclusive: 15.8 µM [falling, single point]"
O=C1CN=C(c2cccs2)c2c(sc3c2CCCC3)N1,–,"inconclusive: 5.01 µM [falling, full curve, poor fit]"
c1ccc(CCNCc2cccs2)cc1,inactive,–
CCOc1cc(CNCCc2c[nH]c3ccccc23)cc(Cl)c1OC,inconclusive: 0.383%,–
CC(C)CCNC(=O)c1c(N)n(Cc2ccc3c(c2)OCO3)c2nc3ccccc3nc12,inactive,–
CCOC(=O)C1(c2ccccc2)CCN(CCC(=O)Nc2cccc(Br)c2)CC1,inconclusive: -8.36%,–
O=C(Oc1c(Cl)cc(Cl)c2ccccc12)N1CCCCC1,inconclusive: 11.5%,–
CSc1ccccc1NC(=O)CN(C)C(=O)Cn1c(=O)oc2ccccc21,inconclusive: -29.7%,–
Clc1ccc(OCC#CCN2CCOCC2)cc1,inconclusive: 4.16%,–
COC(=O)C1=C(c2c(C)noc2C)C[C@@H]2CC[C@H]1N2C(=O)NCC1CC1,inactive,–
CC(C)NC(C)Cc1ccc(I)cc1 (stereo not given),inactive,–
CCOP(=O)(OCC)/C(C#N)=C/c1ccc(Br)cc1,–,"inconclusive: 28.2 µM [falling, partial curve, poor fit]"
c1ccc2c(CN3CCCCC3)c[nH]c2c1,inconclusive: -1.86%,–
CCCCN=Cc1c(O)n(-c2c(C)cc(C)cc2C)c(=O)[nH]c1=O,–,"inconclusive: 6.51 µM [falling, single point]"
COc1cccc(C2CC(c3cccs3)=NN2C(=O)CSC2=NCCS2)c1OC (stereo not given),inconclusive: -28.8%,–
O=C(c1ccc2c(c1)N(Cc1ccc(F)cc1)CCS2)N1CCC2(CC1)OCCO2,–,"inconclusive: 14.1 µM [falling, partial curve, poor fit]"
COC(=O)C1=Nc2ccccc2/C1=C\c1c(O)n(-c2ccc(Br)cc2)c(=O)[nH]c1=O,inactive,–
Cc1[nH]c2ccccc2c1CCNC(=O)c1ccc2c(c1[N+](=O)[O-])C(=O)c1ccccc1C2=O,–,"inconclusive: 0.447 µM [rising, full curve, poor fit]"
Cn1ncc2c(Nc3ccc(Br)cc3)nc(Nc3ccc(Br)cc3)nc21,inconclusive: 8.09%,–
Cc1cccc(C)c1NC1=NCCCCS1,inconclusive: -0.634%,–
COc1ccc2[nH]cc(CCN(C)C)c2c1,inconclusive: -4.23%,–
COCCCOc1ccnc(CS(=O)c2nc3ccccc3[nH]2)c1C (stereo not given),inconclusive: -13.1%,–

# Already shown: an excerpt of the list.
Compound,"activity change, negative = inhibition",Potency
Cc1cccc(CN2C(=O)CN=C(c3ccccc3)c3cc(Cl)ccc32)c1,inactive,–
C1=C(c2c[nH]c3ccccc23)CCN(Cc2ccccc2)C1,inactive,–
O=C(CN1CCN(C(=O)COc2cccc(F)c2)CC1)Nc1ccc(Cl)c(C(F)(F)F)c1,inconclusive: -10.1%,–
